Test results taken from the supplement of paper PMC10849652.
The other results are listed elsewhere or left out.

Amino acid sequences for entries named in this document (tags omitted). A change or cut given only in a name is not applied to a line headed by its entry.
UniProt Q9NV56, whole entry, looked up: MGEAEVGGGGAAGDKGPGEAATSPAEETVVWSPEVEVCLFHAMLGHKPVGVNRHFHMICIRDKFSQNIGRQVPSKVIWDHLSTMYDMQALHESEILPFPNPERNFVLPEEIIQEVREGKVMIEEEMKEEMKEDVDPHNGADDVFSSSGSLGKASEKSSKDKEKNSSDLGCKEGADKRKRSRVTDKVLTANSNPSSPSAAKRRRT
UniProt Q9BV20: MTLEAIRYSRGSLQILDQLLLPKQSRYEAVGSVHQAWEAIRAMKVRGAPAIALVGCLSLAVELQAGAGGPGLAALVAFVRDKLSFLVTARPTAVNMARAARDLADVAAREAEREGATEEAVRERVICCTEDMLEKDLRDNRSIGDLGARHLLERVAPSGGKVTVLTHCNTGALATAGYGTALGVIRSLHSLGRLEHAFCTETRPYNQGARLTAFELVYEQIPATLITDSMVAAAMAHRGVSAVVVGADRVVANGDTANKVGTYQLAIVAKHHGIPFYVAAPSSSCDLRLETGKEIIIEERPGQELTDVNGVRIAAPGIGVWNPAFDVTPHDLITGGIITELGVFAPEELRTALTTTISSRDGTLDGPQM
UniProt Q9NYP9: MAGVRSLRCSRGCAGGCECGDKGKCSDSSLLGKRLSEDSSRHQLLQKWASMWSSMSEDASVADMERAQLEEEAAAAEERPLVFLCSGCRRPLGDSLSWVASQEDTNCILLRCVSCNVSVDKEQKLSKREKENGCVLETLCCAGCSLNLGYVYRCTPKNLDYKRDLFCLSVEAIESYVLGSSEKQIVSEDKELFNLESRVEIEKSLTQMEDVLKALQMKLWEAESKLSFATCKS
UniProt P25325: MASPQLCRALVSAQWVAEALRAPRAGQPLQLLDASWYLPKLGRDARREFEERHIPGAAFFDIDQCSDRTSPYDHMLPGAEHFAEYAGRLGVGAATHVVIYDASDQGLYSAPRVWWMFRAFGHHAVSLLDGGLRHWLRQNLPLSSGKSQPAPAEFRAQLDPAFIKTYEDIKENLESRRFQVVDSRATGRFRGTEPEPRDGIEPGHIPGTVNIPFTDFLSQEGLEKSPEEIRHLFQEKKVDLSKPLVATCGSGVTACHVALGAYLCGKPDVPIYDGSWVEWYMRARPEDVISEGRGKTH
UniProt P49959: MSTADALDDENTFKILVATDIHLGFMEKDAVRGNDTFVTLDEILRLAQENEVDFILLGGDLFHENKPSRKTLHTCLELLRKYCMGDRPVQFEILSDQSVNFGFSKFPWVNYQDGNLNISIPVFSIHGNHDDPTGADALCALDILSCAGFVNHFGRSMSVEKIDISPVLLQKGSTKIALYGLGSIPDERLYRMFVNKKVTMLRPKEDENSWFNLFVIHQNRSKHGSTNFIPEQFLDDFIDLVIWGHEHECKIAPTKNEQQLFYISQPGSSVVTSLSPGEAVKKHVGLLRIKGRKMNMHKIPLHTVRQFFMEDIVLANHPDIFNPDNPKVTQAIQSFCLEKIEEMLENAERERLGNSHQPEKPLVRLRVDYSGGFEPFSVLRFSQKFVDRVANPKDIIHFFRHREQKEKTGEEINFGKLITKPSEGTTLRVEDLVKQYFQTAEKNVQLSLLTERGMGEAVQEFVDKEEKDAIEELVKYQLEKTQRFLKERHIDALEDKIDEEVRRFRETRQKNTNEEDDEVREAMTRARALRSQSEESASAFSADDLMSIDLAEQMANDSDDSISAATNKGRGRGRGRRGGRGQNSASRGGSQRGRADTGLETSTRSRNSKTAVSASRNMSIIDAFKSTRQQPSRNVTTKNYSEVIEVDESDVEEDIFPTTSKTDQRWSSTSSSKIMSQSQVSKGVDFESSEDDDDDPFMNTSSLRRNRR
UniProt Q7L9L4: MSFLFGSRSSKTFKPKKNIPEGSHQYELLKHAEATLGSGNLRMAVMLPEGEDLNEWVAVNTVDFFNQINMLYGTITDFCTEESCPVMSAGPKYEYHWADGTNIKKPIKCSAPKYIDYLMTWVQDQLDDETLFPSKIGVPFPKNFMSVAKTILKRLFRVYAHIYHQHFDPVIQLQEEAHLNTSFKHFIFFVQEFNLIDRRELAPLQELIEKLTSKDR
UniProt Q99547: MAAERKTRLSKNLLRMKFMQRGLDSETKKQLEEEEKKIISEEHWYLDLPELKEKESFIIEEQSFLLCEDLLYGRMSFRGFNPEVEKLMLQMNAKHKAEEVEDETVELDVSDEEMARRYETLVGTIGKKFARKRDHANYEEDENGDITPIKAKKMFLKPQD
UniProt Q9NZW5: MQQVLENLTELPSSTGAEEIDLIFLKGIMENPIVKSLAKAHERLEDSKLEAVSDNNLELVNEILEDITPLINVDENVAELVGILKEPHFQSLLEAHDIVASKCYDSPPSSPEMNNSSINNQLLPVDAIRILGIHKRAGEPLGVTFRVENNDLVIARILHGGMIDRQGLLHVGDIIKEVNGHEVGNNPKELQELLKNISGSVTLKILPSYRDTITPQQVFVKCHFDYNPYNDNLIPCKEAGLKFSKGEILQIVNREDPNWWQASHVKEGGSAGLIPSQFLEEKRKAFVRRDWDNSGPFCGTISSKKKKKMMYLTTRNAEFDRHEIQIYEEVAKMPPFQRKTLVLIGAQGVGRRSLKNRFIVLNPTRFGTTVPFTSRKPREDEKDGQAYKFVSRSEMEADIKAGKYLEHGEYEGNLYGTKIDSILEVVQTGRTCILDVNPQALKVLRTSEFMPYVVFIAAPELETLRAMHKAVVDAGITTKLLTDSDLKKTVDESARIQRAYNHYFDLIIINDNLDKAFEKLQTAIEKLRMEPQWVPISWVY
UniProt Q99797: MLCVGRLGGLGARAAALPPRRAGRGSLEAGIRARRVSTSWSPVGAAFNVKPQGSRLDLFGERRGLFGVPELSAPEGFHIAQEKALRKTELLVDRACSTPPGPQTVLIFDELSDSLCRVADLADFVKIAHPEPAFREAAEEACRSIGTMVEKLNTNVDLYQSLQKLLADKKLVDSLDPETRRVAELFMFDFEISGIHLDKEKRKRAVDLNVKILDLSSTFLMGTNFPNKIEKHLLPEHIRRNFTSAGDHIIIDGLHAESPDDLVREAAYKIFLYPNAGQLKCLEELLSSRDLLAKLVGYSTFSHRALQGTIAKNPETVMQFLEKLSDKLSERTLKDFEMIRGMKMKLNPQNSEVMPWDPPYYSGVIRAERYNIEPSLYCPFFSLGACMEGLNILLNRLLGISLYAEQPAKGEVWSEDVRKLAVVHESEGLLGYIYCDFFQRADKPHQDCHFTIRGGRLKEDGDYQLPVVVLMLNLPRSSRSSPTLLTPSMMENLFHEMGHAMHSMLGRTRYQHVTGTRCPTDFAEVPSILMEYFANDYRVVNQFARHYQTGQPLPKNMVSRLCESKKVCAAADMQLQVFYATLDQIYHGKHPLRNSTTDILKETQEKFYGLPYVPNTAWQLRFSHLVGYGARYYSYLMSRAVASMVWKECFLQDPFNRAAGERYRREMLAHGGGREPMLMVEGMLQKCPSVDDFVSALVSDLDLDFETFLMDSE

What was measured:
Assay in all cases: log2 fold change, soluble protein after heating vs DMSO (PISA); higher = thermal stabilisation; K562 cells, 10 uM, 30 min; active = over 0.2 and 3.5 SD of the protein, either way, in both replicates (recomputed)
[1] = compound: CC[C@@H]1C(=O)N(C)c2cnc(Nc3ccc(C(=O)NC4CCN(C)CC4)cc3OC)nc2N1C1CCCC1
Method in brief: (§1)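 K562 cells at 2×10^6 cells/mL were treated for 30 min with 10 μM compound, and aliquots were heated for 3 min over 48°C-58°C before pooling. Extraction used PBS with 0.5% NP-40 at 4°C, and soluble protein was the supernatant after 21,000xg for 90 min, measured by TMTpro 16plex LC-MS/MS with channel sums equalised. Thermal stability values, relative to control samples and from duplicates, are log2 fold changes.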

volasertib = compound: CC[C@@H]1C(=O)N(C)c2cnc(Nc3ccc(C(=O)N[C@H]4CC[C@H](N5CCN(CC6CC6)CC5)CC4)cc3OC)nc2N1C(C)C [volasertib]
Method in brief: as §1

[2] = compound: CC[C@H](C)N1C=C(C2=C(C=C(C=C21)C3=CN=C(C=C3)N4CCNCC4)C(=O)NCC5=C(C=C(NC5=O)C)C)C
Method in brief: as §1

epoxomicin = compound: CC[C@H](C)[C@@H](C(=O)N[C@@H]([C@@H](C)O)C(=O)N[C@@H](CC(C)C)C(=O)[C@]1(CO1)C)NC(=O)[C@H]([C@@H](C)CC)N(C)C(=O)C [epoxomicin]
Method in brief: as §1

[3] = compound: CCn1c(C(=O)N(C2CC2)C2CC2)cc2c3c(ncn3C)c(Nc3cc(C)n(C)n3)nc21
Method in brief: as §1

[4] = compound: CCn1cc(-c2ccnc3[nH]c(-c4cccc(CN(C)C)c4)cc23)c(-c2ccc(NC(=O)N(C)C)cc2)n1
Method in brief: as §1

[5] = compound: CN(C)CC(=O)Nc1ccc2[nH]c(=O)c3ccccc3c2c1
Method in brief: as §1

rosiglitazone = compound: CN(CCOC1=CC=C(C=C1)C[C@H]2C(=O)NC(=O)S2)C3=CC=CC=N3 (racemic) [rosiglitazone]
Method in brief: as §1

[6] = compound: CN1C2=C(C3=C1C(=O)N(N=C3)CC4=CC(=CC=C4)N)SC(=C2)S(=O)C
Method in brief: as §1

[7] = compound: CN1CCC(CNc2ccc3ncc(-c4cccc(OC(F)(F)F)c4)n3n2)CC1
Method in brief: as §1

saracatinib = compound: CN1CCN(CCOc2cc(OC3CCOCC3)c3c(Nc4c(Cl)ccc5c4OCO5)ncnc3c2)CC1 [saracatinib]
Method in brief: as §1

sotrastaurin = compound: CN1CCN(c2nc(C3=C(c4c[nH]c5ccccc45)C(=O)NC3=O)c3ccccc3n2)CC1 [sotrastaurin]
Method in brief: as §1

alvocidib = compound: CN1CC[C@H](c2c(O)cc(O)c3c(=O)cc(-c4ccccc4Cl)oc23)[C@H](O)C1 [alvocidib]
Method in brief: as §1

Tubastatin A = compound: CN1CCc2c(c3ccccc3n2Cc2ccc(C(=O)NO)cc2)C1 [Tubastatin A]
Method in brief: as §1

[8] = compound: CNC(=O)C1=CC=CC=C1NC2=NC(=NC=C2Cl)NC3=C(C=C(C=C3)N4CCOCC4)OC
Method in brief: as §1

defactinib = compound: CNC(=O)c1ccc(Nc2ncc(C(F)(F)F)c(NCc3nccnc3N(C)S(C)(=O)=O)n2)cc1 [defactinib]
Method in brief: as §1

rucaparib = compound: CNCc1ccc(-c2[nH]c3cc(F)cc4c3c2CCNC4=O)cc1 [rucaparib]
Method in brief: as §1

[9] = compound: CNc1nc(-c2ccc3c(N)n[nH]c3c2)cc(N2C[C@@H](C(=O)NC3CCCCC3)CC[C@H]2C)n1
Method in brief: as §1

encorafenib = compound: COC(=O)N[C@@H](C)CNc1nccc(-c2cn(C(C)C)nc2-c2cc(Cl)cc(NS(C)(=O)=O)c2F)n1 [encorafenib]
Method in brief: as §1

[10] = compound: COC(=O)[C@H](CCSC)NC(=O)C1=C(C=C(C=C1)NC[C@H](CS)N)C2=CC=CC=C2
Method in brief: as §1

Measured: log2 fold change

MRGBP (UniProt Q9NV56)
inactive: [1] -0.014 | volasertib -0.101 | [2] 0.121 | epoxomicin 0.048 | [3] 0.026 | [4] 0.054 | [5] -0.046 | rosiglitazone 0.009 | [6] -0.03 | [7] 0.209 | saracatinib 0.012 | sotrastaurin -0.087 | alvocidib -0.064 | Tubastatin A -0.056 | [8] 0.03 | defactinib -0.045 | rucaparib -0.013 | [9] 0.006 | encorafenib 0.015 | [10] 0.074

MRPL1 (UniProt Q9BYD6)
inactive: [1] 0.03 | volasertib 0.194 | [2] 0.078 | epoxomicin 0.044 | [3] -0.022 | [4] -0.021 | [5] 0.018 | rosiglitazone 0.048 | [6] 0.177 | [7] -0.056 | saracatinib -0.125 | sotrastaurin -0.181 | alvocidib 0.014 | Tubastatin A 0.195 | [8] -0.022 | defactinib 0.304 | rucaparib 0.156 | [9] 0.175 | encorafenib 0.104 | [10] -0.031

MRPL15 (UniProt Q9P015)
inactive: [1] 0.134 | volasertib 0.165 | [2] 0.073 | epoxomicin -0.029 | [3] -0.015 | [4] -0.04 | [5] -0.006 | rosiglitazone -0.004 | [6] 0.05 | [7] 0.059 | saracatinib -0.127 | sotrastaurin -0.053 | alvocidib 0.146 | Tubastatin A 0.111 | [8] -0.03 | defactinib 0.193 | rucaparib 0.138 | [9] 0.14 | encorafenib 0.112 | [10] -0.026

MRI1 (UniProt Q9BV20)
inactive: [1] 0.018 | volasertib -0.029 | [2] -0.028 | epoxomicin 0.044 | [3] -0.027 | [4] -0.021 | [5] -0.004 | rosiglitazone 0.014 | [6] -0.014 | [7] 0 | saracatinib -0.023 | sotrastaurin -0.009 | alvocidib -0.024 | Tubastatin A 0.013 | [8] 0.005 | defactinib 0 | rucaparib -0.041 | [9] -0.034 | encorafenib -0.021 | [10] 0.028

MRPL49 (UniProt Q13405)
inactive: [1] 0.07 | volasertib 0.092 | [2] 0.014 | epoxomicin 0.018 | [3] -0.044 | [4] 0.033 | [5] -0.128 | rosiglitazone 0.004 | [6] 0.094 | [7] 0.145 | saracatinib -0.179 | sotrastaurin -0.04 | alvocidib 0.035 | Tubastatin A 0.026 | [8] -0.065 | defactinib -0.019 | rucaparib 0.074 | [9] 0.067 | encorafenib 0.041 | [10] -0.059

MIS18A (UniProt Q9NYP9)
inactive: [1] -0.014 | volasertib -0.068 | [2] 0.043 | epoxomicin 0.004 | [3] 0.013 | [4] -0.009 | [5] 0.051 | rosiglitazone 0.017 | [6] -0.058 | [7] -0.022 | saracatinib 0.017 | sotrastaurin 0.032 | alvocidib -0.056 | Tubastatin A 0.014 | [8] 0.015 | defactinib -0.1 | rucaparib -0.01 | [9] -0.037 | encorafenib 0.005 | [10] 0.033

MRPL48 (UniProt Q96GC5)
inactive: [1] 0.068 | volasertib 0.255 | [2] 0.205 | epoxomicin -0.106 | [3] -0.064 | [4] -0.068 | [5] 0.002 | rosiglitazone -0.064 | [6] -0.01 | [7] 0.122 | saracatinib -0.11 | sotrastaurin -0.046 | alvocidib 0.109 | Tubastatin A 0.082 | [8] -0.071 | defactinib 0.105 | rucaparib 0.117 | [9] 0.223 | encorafenib 0.081 | [10] 0.04

MRPL11 (UniProt Q9Y3B7)
inactive: [1] 0.092 | volasertib 0.153 | [2] 0.098 | epoxomicin -0.027 | [3] -0.041 | [4] -0.054 | [5] 0.038 | rosiglitazone -0.052 | [6] 0.06 | [7] 0.075 | saracatinib -0.148 | sotrastaurin -0.028 | alvocidib 0.117 | Tubastatin A 0.084 | [8] 0.018 | defactinib 0.161 | rucaparib 0.115 | [9] 0.136 | encorafenib 0.138 | [10] -0.038

MRPL35 (UniProt Q9NZE8)
inactive: [1] 0.06 | volasertib 0.143 | [2] -0.031 | epoxomicin -0.109 | [3] -0.039 | [4] 0.123 | [5] -0.044 | rosiglitazone -0.1 | [6] 0.113 | [7] 0.111 | saracatinib -0.227 | sotrastaurin -0.076 | alvocidib 0.061 | Tubastatin A 0.033 | [8] 0.001 | defactinib 0.049 | rucaparib 0.104 | [9] 0.071 | encorafenib 0.153 | [10] -0.054

MPST isoform 2 (UniProt P25325)
inactive: [1] 0.017 | volasertib -0.118 | [2] -0.005 | epoxomicin 0.012 | [3] -0.018 | [4] 0.028 | [5] 0.021 | rosiglitazone 0.019 | [6] -0.061 | [7] 0.014 | saracatinib -0.012 | sotrastaurin -0.071 | alvocidib -0.058 | Tubastatin A -0.016 | [8] 0.133 | defactinib -0.099 | rucaparib 0.007 | [9] 0.001 | encorafenib 0.004 | [10] -0.031

Reprinted from above (two entries):
MRPL48 (UniProt Q96GC5)
inactive: [1] 0.068 | volasertib 0.255 | [2] 0.205 | epoxomicin -0.106 | [3] -0.064 | [4] -0.068 | [5] 0.002 | rosiglitazone -0.064 | [6] -0.01 | [7] 0.122 | saracatinib -0.11 | sotrastaurin -0.046 | alvocidib 0.109 | Tubastatin A 0.082 | [8] -0.071 | defactinib 0.105 | rucaparib 0.117 | [9] 0.223 | encorafenib 0.081 | [10] 0.04

MRPL11 (UniProt Q9Y3B7)
inactive: [1] 0.092 | volasertib 0.153 | [2] 0.098 | epoxomicin -0.027 | [3] -0.041 | [4] -0.054 | [5] 0.038 | rosiglitazone -0.052 | [6] 0.06 | [7] 0.075 | saracatinib -0.148 | sotrastaurin -0.028 | alvocidib 0.117 | Tubastatin A 0.084 | [8] 0.018 | defactinib 0.161 | rucaparib 0.115 | [9] 0.136 | encorafenib 0.138 | [10] -0.038

(next part)

MRE11 isoform 3 (UniProt P49959)
inactive: [1] -0.001 | volasertib -0.066 | [2] -0.005 | epoxomicin -0.001 | [3] 0.009 | [4] -0.01 | [5] -0.017 | rosiglitazone -0.035 | [6] -0.028 | [7] 0.04 | saracatinib 0.011 | sotrastaurin -0.021 | alvocidib -0.018 | Tubastatin A -0.063 | [8] -0.019 | defactinib -0.05 | rucaparib -0.009 | [9] -0.031 | encorafenib 0.02 | [10] 0.036

MRPL41 (UniProt Q8IXM3)
inactive: [1] 0.037 | volasertib 0.214 | [2] 0.042 | epoxomicin -0.046 | [3] -0.09 | [4] -0.021 | [5] 0.008 | rosiglitazone 0.009 | [6] 0.11 | [7] 0.083 | saracatinib -0.128 | sotrastaurin 0.01 | alvocidib 0.136 | Tubastatin A 0.108 | [8] 0.011 | defactinib 0.174 | rucaparib 0.114 | [9] 0.108 | encorafenib 0.057 | [10] -0.092

MOB1B isoform 2 (UniProt Q7L9L4)
inactive: [1] -0.03 | volasertib -0.044 | [2] 0.002 | epoxomicin 0.033 | [3] -0.016 | [4] 0.006 | [5] -0.01 | rosiglitazone 0.037 | [6] -0.098 | [7] -0.091 | saracatinib 0.031 | sotrastaurin 0.018 | alvocidib -0.021 | Tubastatin A 0.01 | [8] -0.036 | defactinib 0.005 | rucaparib -0.104 | [9] -0.034 | encorafenib 0.004 | [10] 0.028

MPHOSPH6 (UniProt Q99547)
inactive: [1] 0.109 | volasertib -0.129 | [2] -0.04 | epoxomicin -0.108 | [3] 0.011 | [4] 0.042 | [5] -0.063 | rosiglitazone -0.05 | [6] 0.104 | [7] 0.054 | saracatinib -0.056 | sotrastaurin 0.063 | alvocidib 0.062 | Tubastatin A 0.058 | [8] -0.016 | defactinib 0.078 | rucaparib 0.121 | [9] 0.042 | encorafenib 0.156 | [10] 0.079

MPP6 (UniProt Q9NZW5)
inactive: [1] 0.015 | volasertib -0.074 | [2] 0.049 | epoxomicin 0.013 | [3] -0.018 | [4] -0.022 | [5] 0.023 | rosiglitazone 0.022 | [6] -0.043 | [7] -0.035 | saracatinib -0.004 | sotrastaurin 0.001 | alvocidib -0.066 | Tubastatin A 0.02 | [8] -0.008 | defactinib -0.055 | rucaparib 0.012 | [9] 0.022 | encorafenib 0.034 | [10] 0.013

MIPEP (UniProt Q99797)
inactive: [1] -0.085 | volasertib -0.073 | [2] 0.011 | epoxomicin 0.054 | [3] -0.036 | [4] -0.055 | [5] -0.002 | rosiglitazone 0.028 | [6] -0.063 | [7] -0.145 | saracatinib 0.032 | sotrastaurin 0 | alvocidib -0.074 | Tubastatin A 0.019 | [8] 0.018 | defactinib -0.064 | rucaparib -0.13 | [9] -0.038 | encorafenib -0.008 | [10] -0.031
